Sequences of proteins named here, by UniProt entry; tags and fusion partners are left off. A change or cut given only in a name is not applied to a line headed by its entry.
UniProt P10275: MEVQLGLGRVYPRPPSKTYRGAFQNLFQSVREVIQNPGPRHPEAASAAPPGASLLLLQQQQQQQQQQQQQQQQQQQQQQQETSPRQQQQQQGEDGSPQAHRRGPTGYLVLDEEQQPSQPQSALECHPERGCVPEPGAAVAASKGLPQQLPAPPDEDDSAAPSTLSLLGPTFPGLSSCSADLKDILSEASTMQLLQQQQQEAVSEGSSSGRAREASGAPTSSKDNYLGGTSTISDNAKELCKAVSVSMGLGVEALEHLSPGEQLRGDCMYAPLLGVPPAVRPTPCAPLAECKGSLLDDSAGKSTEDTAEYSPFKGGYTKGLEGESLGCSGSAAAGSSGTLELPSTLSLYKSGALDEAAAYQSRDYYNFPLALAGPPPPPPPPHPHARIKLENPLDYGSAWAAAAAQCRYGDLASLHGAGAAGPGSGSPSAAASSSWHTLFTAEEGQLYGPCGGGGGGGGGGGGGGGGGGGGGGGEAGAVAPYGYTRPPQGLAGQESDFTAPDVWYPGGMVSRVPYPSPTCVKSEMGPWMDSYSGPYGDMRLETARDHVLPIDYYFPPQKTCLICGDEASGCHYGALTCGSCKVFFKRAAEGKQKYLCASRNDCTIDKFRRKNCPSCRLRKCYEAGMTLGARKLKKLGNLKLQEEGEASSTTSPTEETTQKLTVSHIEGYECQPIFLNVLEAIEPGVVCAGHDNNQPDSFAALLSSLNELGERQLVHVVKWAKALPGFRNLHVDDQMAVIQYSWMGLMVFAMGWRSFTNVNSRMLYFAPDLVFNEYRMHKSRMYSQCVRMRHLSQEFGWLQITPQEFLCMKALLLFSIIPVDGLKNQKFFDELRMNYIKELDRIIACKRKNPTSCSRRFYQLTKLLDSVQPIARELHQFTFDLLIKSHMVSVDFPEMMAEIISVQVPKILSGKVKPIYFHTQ
UniProt P35222: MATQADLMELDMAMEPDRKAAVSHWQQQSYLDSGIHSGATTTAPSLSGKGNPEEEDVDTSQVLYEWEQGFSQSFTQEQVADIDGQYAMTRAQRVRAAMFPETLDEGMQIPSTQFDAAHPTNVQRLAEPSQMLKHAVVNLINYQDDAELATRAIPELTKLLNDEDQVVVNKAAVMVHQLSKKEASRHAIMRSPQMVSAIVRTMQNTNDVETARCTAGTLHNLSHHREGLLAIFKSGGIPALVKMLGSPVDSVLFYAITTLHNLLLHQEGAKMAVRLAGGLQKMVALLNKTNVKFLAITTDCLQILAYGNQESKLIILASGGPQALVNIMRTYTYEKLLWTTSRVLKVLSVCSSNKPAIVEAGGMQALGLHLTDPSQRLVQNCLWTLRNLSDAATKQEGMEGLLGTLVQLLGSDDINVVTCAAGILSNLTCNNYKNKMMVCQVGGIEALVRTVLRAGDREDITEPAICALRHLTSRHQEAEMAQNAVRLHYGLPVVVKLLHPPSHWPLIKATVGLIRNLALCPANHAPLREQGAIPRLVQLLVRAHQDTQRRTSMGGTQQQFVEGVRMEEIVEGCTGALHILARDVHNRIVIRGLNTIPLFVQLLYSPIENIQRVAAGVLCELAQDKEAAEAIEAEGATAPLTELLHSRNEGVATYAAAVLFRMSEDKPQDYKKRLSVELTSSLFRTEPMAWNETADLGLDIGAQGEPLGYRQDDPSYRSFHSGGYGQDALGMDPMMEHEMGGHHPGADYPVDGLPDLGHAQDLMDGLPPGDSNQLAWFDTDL

According to paper PMC4514735, “The FKBP52 Cochaperone Acts in Synergy with β-Catenin to Potentiate Androgen Receptor Signaling” (PLoS ONE, 2015):

Molecular target: Gal4 DNA binding domain (DBD)-AR LBD chimeric protein (UniProt P10275)
Test: co-IP; 293T cells co-transfected with Gal4-AR LBD and β-catenin, lysates (RIPA buffer), anti-Gal4 antibody, blot for β-catenin; untreated, 10 nM DHT alone or 30 μM MJC13 alone

binding: binds
Substance: β-catenin (expression plasmid, 293T) (from UniProt P35222 1-781)

Results are given in words; binding and its absence hold for the method and conditions named. Binding seen in cells or lysates may run through a third protein. Binding calls can cover weak binding; strength is not graded here.
